Measurements from patent US8822502B2, “Insecticidal compounds” (Syngenta Crop Protection LLC, priority 2008, dated 2014).
Some of these results come from one statement about several compounds together.

What was measured:
Format in all cases: in vivo
[1] = tested on: Heliothis virescens; assay: Heliothis virescens egg / artificial diet test; details: application rate 200 ppm (concentration in well 18 ppm), eggs 0-24 h old on artificial diet, 4 days; egg mortality, larval mortality, growth regulation
Method: Heliothis Virescens (Tobacco Budworm):
Eggs (0-24 h old) were placed in 24-well microtiter plate on artificial diet and treated with test solutions at an application rate of 200 ppm (concentration in well 18 ppm) by pipetting. After an incubation period of 4 days, samples were checked for egg mortality, larval mortality, and growth regulation.

[2] = tested on: Plutella xylostella; assay: Plutella xylostella artificial diet test; details: application rate 200 ppm (concentration in well 18 ppm), L2 larvae, 6 days, larval mortality, growth regulation
Method: Plutella Xylostella (Diamond Back Moth):
(§1) 24-well microtiter plate (MTP) with artificial diet was treated with test solutions at an application rate of 200 ppm (concentration in well 18 ppm) by pipetting. After drying, the MTP's were infested with L2 larvae (7-12 per well). After an incubation period of 6 days, samples were checked for larval mortality and growth regulation.

[3] = tested on: Tetranychus urticae; assay: Tetranychus urticae bean leaf disc spray test; details: application rate 200 ppm, sprayed bean leaf discs, mite populations of mixed ages, 8 days; egg, larval and adult mortality
Description: Tetranychus Urticae (Two-Spotted Spider Mite):
Bean leaf discs on agar in 24-well microtiter plates were sprayed with test solutions at an application rate of 200 ppm. After drying, the leaf discs are infested with mite populations of mixed ages. 8 days later, discs are checked for egg mortality, larval mortality, and adult mortality.

[4] = tested on: Thrips tabaci; assay: Thrips tabaci sunflower leaf disc spray test; details: application rate 200 ppm, sprayed sunflower leaf discs, population of mixed ages, 7 days; mortality
Method: Thrips Tabaci (Onion Thrips):
Sunflower leaf discs were placed on agar in a 24-well microtiter plate and sprayed with test solutions at an application rate of 200 ppm. […] After an incubation period of 7 days, samples were checked for mortality.

[5] = tested on: Diabrotica balteata; assay: Diabrotica balteata artificial diet test; details: application rate 200 ppm (concentration in well 18 ppm), L2 larvae, 5 days, larval mortality, growth regulation
Method: Diabrotica Balteata (Corn Root Worm):
as §1, with “A 24-well” for “24-well”, “(6-10” for “(7-12”, “5” for “6”

[6] = tested on: Spodoptera littoralis; assay: Spodoptera littoralis cotton leaf disc spray test; details: application rate 200 ppm, sprayed cotton leaf discs, L1 larvae, 3 days after treatment; mortality, feeding behavior, growth regulation
Description: Spodoptera Littoralis (Egyptian Cotton Leafworm):
Cotton leaf discs were placed on agar in a 24-well microtiter plate and sprayed with test solutions at an application rate of 200 ppm. After drying, the leaf discs were infested with 5 L1 larvae. The samples were checked for mortality, feeding behavior, and growth regulation 3 days after treatment (DAT).

4-[4-bromo-5-(3,5-dichloro-phenyl)-5-trifluoromethyl-4,5-dihydro-isoxazol-3-yl]-2-methyl-N-thietan-3-yl-benzamide [A22]
at least 80%: control of Heliothis virescens [1] | control of Plutella xylostella [2] | control of Tetranychus urticae [3] | control of Thrips tabaci [4] | control of Diabrotica balteata [5] | control of Spodoptera littoralis [6]

Cc1cc(C2=NOC(c3cc(Cl)cc(Cl)c3)(C(F)(F)F)C2Br)ccc1C(=O)NCc1nc2ccccc2[nH]1 (stereo not shown) [A5]
at least 80%: control of Heliothis virescens [1] | control of Plutella xylostella [2] | control of Tetranychus urticae [3] | control of Diabrotica balteata [5] | control of Spodoptera littoralis [6]

Cc1csc(NC(=O)c2ccc(C3=NOC(c4cc(Cl)cc(Cl)c4)(C(F)(F)F)C3Br)cc2C)n1 (stereo not shown) [A18]
at least 80%: control of Heliothis virescens [1] | control of Plutella xylostella [2] | control of Diabrotica balteata [5] | control of Spodoptera littoralis [6]

CSCC(C)(C)NC(=O)c1ccc(C2=NOC(c3cc(Cl)cc(Cl)c3)(C(F)(F)F)C2Br)cc1C (stereo not shown) [A20]
at least 80%: control of Heliothis virescens [1] | control of Plutella xylostella [2] | control of Tetranychus urticae [3] | control of Diabrotica balteata [5] | control of Spodoptera littoralis [6]

Cc1cc(C2=NOC(c3cc(Cl)cc(Cl)c3)(C(F)(F)F)C2Cl)ccc1C(=O)NCC(F)(F)F (stereo not shown) [B2]
at least 80%: control of Heliothis virescens [1] | control of Plutella xylostella [2] | control of Tetranychus urticae [3] | control of Thrips tabaci [4] | control of Diabrotica balteata [5] | control of Spodoptera littoralis [6]

Cc1cc(C2=NOC(c3cc(Cl)cc(Cl)c3)(C(F)(F)F)C2Cl)ccc1C(=O)NCCC(F)(F)F (stereo not shown) [B5]
at least 80%: control of Heliothis virescens [1] | control of Plutella xylostella [2] | control of Tetranychus urticae [3] | control of Thrips tabaci [4] | control of Diabrotica balteata [5] | control of Spodoptera littoralis [6]

Cc1cc(C2=NOC(c3cc(Cl)cc(Cl)c3)(C(F)(F)F)C2Cl)ccc1C(=O)NCC1CCCO1 (stereo not shown) [B7]
at least 80%: control of Heliothis virescens [1] | control of Plutella xylostella [2] | control of Tetranychus urticae [3] | control of Thrips tabaci [4] | control of Diabrotica balteata [5] | control of Spodoptera littoralis [6]

Cc1cc(C2=NOC(c3cc(Cl)cc(Cl)c3)(C(F)(F)F)C2Cl)ccc1C(=O)NCc1ccccc1F (stereo not shown) [B9]
at least 80%: control of Heliothis virescens [1] | control of Plutella xylostella [2] | control of Tetranychus urticae [3] | control of Thrips tabaci [4] | control of Diabrotica balteata [5] | control of Spodoptera littoralis [6]

Cc1cc(C2=NOC(c3cc(Cl)cc(Cl)c3)(C(F)(F)F)C2Cl)ccc1C(=O)NC(C)c1ccccc1 (stereo not shown) [B10]
at least 80%: control of Heliothis virescens [1] | control of Plutella xylostella [2] | control of Tetranychus urticae [3] | control of Thrips tabaci [4] | control of Diabrotica balteata [5] | control of Spodoptera littoralis [6]

COc1ccc(CNC(=O)c2ccc(C3=NOC(c4cc(Cl)cc(Cl)c4)(C(F)(F)F)C3Cl)cc2C)cc1 (stereo not shown) [B11]
at least 80%: control of Heliothis virescens [1] | control of Plutella xylostella [2] | control of Tetranychus urticae [3] | control of Thrips tabaci [4] | control of Diabrotica balteata [5] | control of Spodoptera littoralis [6]

Cc1cc(C2=NOC(c3cc(Cl)cc(Cl)c3)(C(F)(F)F)C2Cl)ccc1C(=O)NC1CS(=O)(=O)C1 (stereo not shown) [B12]
at least 80%: control of Heliothis virescens [1] | control of Plutella xylostella [2] | control of Tetranychus urticae [3] | control of Thrips tabaci [4] | control of Diabrotica balteata [5] | control of Spodoptera littoralis [6]

Cc1cc(C2=NOC(c3cc(Cl)cc(Cl)c3)(C(F)(F)F)C2Cl)ccc1C(=O)Nc1ccc(S(=O)(=O)N(C)C)cc1 (stereo not shown) [B15]
at least 80%: control of Heliothis virescens [1] | control of Plutella xylostella [2] | control of Diabrotica balteata [5] | control of Spodoptera littoralis [6]

Cc1cc(NC(=O)c2ccc(C3=NOC(c4cc(Cl)cc(Cl)c4)(C(F)(F)F)C3Cl)cc2C)n(C)n1 (stereo not shown) [B16]
at least 80%: control of Heliothis virescens [1] | control of Plutella xylostella [2] | control of Tetranychus urticae [3] | control of Diabrotica balteata [5] | control of Spodoptera littoralis [6]

Cc1csc(NC(=O)c2ccc(C3=NOC(c4cc(Cl)cc(Cl)c4)(C(F)(F)F)C3Cl)cc2C)n1 (stereo not shown) [B17]
at least 80%: control of Heliothis virescens [1] | control of Plutella xylostella [2] | control of Diabrotica balteata [5] | control of Spodoptera littoralis [6]

O=C(NCC(F)(F)F)c1ccc(C2=NOC(c3cc(Cl)cc(Cl)c3)(C(F)(F)F)C2Br)c2ccccc12 (stereo not shown) [F1]
at least 80%: control of Heliothis virescens [1] | control of Plutella xylostella [2] | control of Diabrotica balteata [5] | control of Spodoptera littoralis [6]

O=C(NCc1nc2ccccc2[nH]1)c1ccc(C2=NOC(c3cc(Cl)cc(Cl)c3)(C(F)(F)F)C2Br)c2ccccc12 (stereo not shown) [F5]
at least 80%: control of Heliothis virescens [1] | control of Plutella xylostella [2] | control of Tetranychus urticae [3] | control of Diabrotica balteata [5] | control of Spodoptera littoralis [6]

O=C(NCc1ccc(Cl)nc1)c1ccc(C2=NOC(c3cc(Cl)cc(Cl)c3)(C(F)(F)F)C2Br)c2ccccc12 (stereo not shown) [F13]
at least 80%: control of Heliothis virescens [1] | control of Plutella xylostella [2] | control of Tetranychus urticae [3] | control of Diabrotica balteata [5] | control of Spodoptera littoralis [6]

CN(C)S(=O)(=O)c1ccc(NC(=O)c2ccc(C3=NOC(c4cc(Cl)cc(Cl)c4)(C(F)(F)F)C3Br)c3ccccc23)cc1 (stereo not shown) [F15]
at least 80%: control of Heliothis virescens [1] | control of Plutella xylostella [2] | control of Diabrotica balteata [5] | control of Spodoptera littoralis [6]

Cc1cc(NC(=O)c2ccc(C3=NOC(c4cc(Cl)cc(Cl)c4)(C(F)(F)F)C3Br)c3ccccc23)n(C)n1 (stereo not shown) [F16]
at least 80%: control of Heliothis virescens [1] | control of Plutella xylostella [2] | control of Diabrotica balteata [5] | control of Spodoptera littoralis [6]

Cc1csc(NC(=O)c2ccc(C3=NOC(c4cc(Cl)cc(Cl)c4)(C(F)(F)F)C3Br)c3ccccc23)n1 (stereo not shown) [F17]
at least 80%: control of Heliothis virescens [1] | control of Plutella xylostella [2] | control of Thrips tabaci [4] | control of Diabrotica balteata [5] | control of Spodoptera littoralis [6]

O=C(NC1CC2CCC1C2)c1ccc(C2=NOC(c3cc(Cl)cc(Cl)c3)(C(F)(F)F)C2Br)c2ccccc12 (stereo not shown) [F22]
at least 80%: control of Heliothis virescens [1] | control of Plutella xylostella [2] | control of Thrips tabaci [4] | control of Diabrotica balteata [5] | control of Spodoptera littoralis [6]

Cc1cc(C2=NOC(c3cc(Cl)cc(Cl)c3)(C(F)(F)F)C2O)ccc1C(=O)NC1CS(=O)(=O)C1 (stereo not shown) [H1]
at least 80%: control of Heliothis virescens [1] | control of Plutella xylostella [2] | control of Tetranychus urticae [3] | control of Thrips tabaci [4] | control of Spodoptera littoralis [6]

Cc1cc(C2=NOC(c3cc(Cl)cc(Cl)c3)(C(F)(F)F)C2O)ccc1C(=O)NC1(C)CSC1 (stereo not shown) [H2]
at least 80%: control of Plutella xylostella [2]

Cc1cc(C2=NOC(c3cc(Cl)cc(Cl)c3)(C(F)(F)F)C2O)ccc1C(=O)NC1C[S+]([O-])C1 (stereo not shown) [H3]
at least 80%: control of Plutella xylostella [2] | control of Tetranychus urticae [3] | control of Thrips tabaci [4] | control of Spodoptera littoralis [6]

Cc1cc(C2=NOC(c3cc(Cl)cc(Cl)c3)(C(F)(F)F)C2O)ccc1C(=O)NC1CSC1 (stereo not shown) [H4]
at least 80%: control of Plutella xylostella [2] | control of Tetranychus urticae [3] | control of Thrips tabaci [4] | control of Spodoptera littoralis [6]
